From publication PMC10510149
No constants are given. Whether binding was seen depends on the method and setting. In cells and extracts the contact can be indirect. Some results given as binding are weak or reduced against the parent protein; the word gives no strength.

Chains of the proteins cited; added tags and fusions are not shown.
UniProt P35222: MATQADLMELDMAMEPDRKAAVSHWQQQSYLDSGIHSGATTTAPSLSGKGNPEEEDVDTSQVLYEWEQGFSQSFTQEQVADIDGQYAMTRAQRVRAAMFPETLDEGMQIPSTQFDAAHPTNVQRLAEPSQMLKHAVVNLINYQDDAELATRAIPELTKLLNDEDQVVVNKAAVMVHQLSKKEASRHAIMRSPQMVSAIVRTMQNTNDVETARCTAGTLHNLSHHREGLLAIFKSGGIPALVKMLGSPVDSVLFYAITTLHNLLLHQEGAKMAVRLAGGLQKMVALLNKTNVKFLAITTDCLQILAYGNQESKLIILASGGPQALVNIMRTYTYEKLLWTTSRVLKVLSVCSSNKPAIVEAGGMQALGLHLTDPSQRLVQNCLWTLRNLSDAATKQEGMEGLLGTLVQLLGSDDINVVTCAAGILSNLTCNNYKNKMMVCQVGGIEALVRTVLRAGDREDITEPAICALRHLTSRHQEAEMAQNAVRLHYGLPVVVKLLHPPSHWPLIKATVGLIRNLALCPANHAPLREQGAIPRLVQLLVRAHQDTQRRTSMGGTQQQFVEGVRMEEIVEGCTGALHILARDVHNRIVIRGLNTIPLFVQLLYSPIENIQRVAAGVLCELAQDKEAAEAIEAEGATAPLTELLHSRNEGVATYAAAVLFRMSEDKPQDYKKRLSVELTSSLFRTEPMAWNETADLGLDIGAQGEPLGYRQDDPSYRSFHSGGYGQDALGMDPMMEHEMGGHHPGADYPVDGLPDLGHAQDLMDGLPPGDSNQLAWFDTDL
UniProt P45974: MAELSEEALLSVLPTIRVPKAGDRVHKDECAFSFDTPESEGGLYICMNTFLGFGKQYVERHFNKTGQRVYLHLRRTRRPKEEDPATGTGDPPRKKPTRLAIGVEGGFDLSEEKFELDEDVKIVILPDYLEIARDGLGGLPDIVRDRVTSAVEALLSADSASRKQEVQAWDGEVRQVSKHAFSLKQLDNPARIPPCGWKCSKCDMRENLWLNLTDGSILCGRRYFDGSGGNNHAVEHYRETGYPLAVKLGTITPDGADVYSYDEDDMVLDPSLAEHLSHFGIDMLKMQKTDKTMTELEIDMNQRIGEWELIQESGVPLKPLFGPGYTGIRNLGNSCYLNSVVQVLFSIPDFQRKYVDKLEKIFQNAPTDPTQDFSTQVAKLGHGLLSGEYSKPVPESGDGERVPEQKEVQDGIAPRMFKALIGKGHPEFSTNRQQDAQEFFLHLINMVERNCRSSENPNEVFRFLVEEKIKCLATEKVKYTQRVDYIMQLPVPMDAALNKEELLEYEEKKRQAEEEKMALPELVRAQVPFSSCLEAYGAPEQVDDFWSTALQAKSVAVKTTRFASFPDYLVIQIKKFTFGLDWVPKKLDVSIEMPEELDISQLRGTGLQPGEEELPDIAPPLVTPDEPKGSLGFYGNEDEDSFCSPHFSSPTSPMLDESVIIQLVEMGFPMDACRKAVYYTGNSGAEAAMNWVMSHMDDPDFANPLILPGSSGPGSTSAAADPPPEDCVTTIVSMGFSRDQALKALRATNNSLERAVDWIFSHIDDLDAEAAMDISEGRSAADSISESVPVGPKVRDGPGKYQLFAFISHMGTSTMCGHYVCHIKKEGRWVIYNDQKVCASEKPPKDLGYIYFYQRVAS

Tests used:
[1] = target: β-catenin (human (endogenous in CL1-5)) (UniProt P35222); test: co-IP; endogenous proteins in CL1-5 cell extract; IP buffer (0.5% Triton X-100, 137 mM NaCl, 19 mM Tris-HCl, 2.68 mM KCl, 30 mM Na-pyrophosphate, pH 7.4); 1 mg extract with 1 µg antibody or mouse IgG overnight at 4 °C, protein G magnetic beads; both orientations (anti-USP5 IP and anti-β-catenin IP), western blot
[2] = target: ubiquitin-specific peptidase 5 (human (endogenous in CL1-5)) (UniProt P45974); test: as above

ubiquitin-specific peptidase 5 (from UniProt P45974 1-858) (enzyme)
binding [1]: binds

β-catenin (from UniProt P35222 1-781)
binding [2]: binds
